Measured values published in PubChem BioAssay AID493014 (National Center for Advancing Translational Sciences (NCATS), 2011).
Some of the results follow. Further columns of the screen follow, without active or inactive calls. The list favours compounds with an active or inconclusive main result. Potencies come from curve fits of mixed quality, noted in brackets.

Experiment: qHTS Assay to Find Inhibitors of Chronic Active B-Cell Receptor Signaling
Details: ABC-DLBCL IkBa-CBG/CBR reporter, luminescence ratio (green luciferase fused to IkBa over red control in TMD8 lymphoma cells), 4 h
Summary of the method: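 TMD8 human ABC-DLBCL cells with doxycycline-inducible IκBα–green luciferase fusion and unfused red luciferase, in 0.5% FBS medium; compounds up to 46 uM, 4 h at 37C. Green/red luminescence ratio, filter-overlap corrected, fitted to concentration-response curves.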

[1] = measured here: CBR red luminescence, cell number
[2] = measured here: IkBa-CBG green luminescence

Compound | AC50 [1] | AC50 [2]
Cc1cccn2c(=O)c(/C=C(\C#N)C(N)=O)c(N3CCN(c4cccc(Cl)c4)CC3)nc12 | 14.1 µM [falling, single point] | –
COc1ccc(N=Cc2ccc[nH]2)cc1 | 6.51 µM [falling, single point] | –
Cc1cc(N2C(=O)C(O)=C(C(=O)c3cccs3)C2c2ccc(F)cc2)no1 (stereo unspecified) | 1.78 µM [falling, full curve] | –
COc1ccc2c(c1)N(C(=O)CSc1n[nH]c(C)n1)C(C)(C)C=C2C | 29.1 µM [rising, single point] | –
Cc1ccc(-c2ccc(C#N)c(=O)n2CC(=O)N(C)C)cc1 | 0.282 µM [rising, full curve, poor fit] | –
COc1ccc(OC)c(C2C(C(N)=O)=C(C)Nc3nc(-c4cccc(Cl)c4)nn32)c1 (stereo unspecified) | 10 µM [falling, partial curve] | –
CC(NC(=O)Nc1ccc(Cl)cc1)C1CCCO1 (stereo unspecified) | 2 µM [rising, partial curve, poor fit] | –
COc1ccc(/C=C/c2nc3ccccc3n2Cc2ccc(OC)c(OC)c2)cc1 | – | 3.26 µM [falling, partial curve, poor fit]
CCN(CC)C(=O)[C@H]1CC(CC(=O)NCC23CC4CC(CC(C4)C2)C3)C(=O)N2CCc3c([nH]c4ccc(OC)cc34)[C@]12C (stereo partly specified) | 29.1 µM [falling, partial curve, poor fit] | –
Oc1ccc(N=Cc2c(O)ccc3ccccc23)cc1 | 10 µM [falling, partial curve] | –
COc1ccc(C(C(=O)NCCC(C)C)N(CCO)C(=O)c2snc(C(N)=O)c2N)cc1OC (stereo unspecified) | 10 µM [rising, partial curve] | –
NC(=O)c1sc2nnc(-c3ccccc3)c(-c3ccccc3)c2c1N | 6.31 µM [rising, partial curve, poor fit] | –
O=C(/C=C/c1ccccc1[N+](=O)[O-])OCC(=O)c1ccccc1 | 35.5 µM [falling, single point] | –
O=C(N=Nc1ccc(NOC(=O)c2ccccc2Br)cc1)c1ccccc1O | 0.112 µM [falling, full curve] | –
COc1cccc(-c2cc(C(=O)NCc3ccccc3)[nH]n2)c1 | 35.5 µM [falling, partial curve, poor fit] | –
CCOc1ccc2oc(C(=O)Nc3ccc4c(c3)OCO4)c(C)c2c1 | 20 µM [falling, partial curve, poor fit] | –
N#Cc1cccnc1Oc1ccccc1 | 0.1 µM [rising, full curve, poor fit] | –
N/C(Cn1cncn1)=N\NC(=O)C(=O)Nc1ccccc1 | 14.1 µM [falling, single point] | –
O=C(c1ccc2c(Cl)c3c(nc2c1)CCCC3)N1CCC(N2CCCCC2)CC1 | 29.1 µM [falling, single point] | –
COc1ccccc1CN1C[C@@H]2C[C@@H](c3cccc(C)n3)N3CCC[C@@]23C1=O | 5.62 µM [rising, single point] | –

Copied from the list.
In AC50 [1], `Cc1cccn2c(=O)c(/C=C(\C#N)C(N)=O)c(N3CCN(c4cccc(Cl)c4)CC3)nc12` shows 14.1 µM [falling, single point]
In AC50 [1], `O=C(N=Nc1ccc(NOC(=O)c2ccccc2Br)cc1)c1ccccc1O` shows 0.112 µM [falling, full curve]

More entries

Compound | AC50 [1] | AC50 [2]
CCC(CO)Oc1cc(NC(=O)c2ccccc2N)c2ncn(C(C)C)c2c1 (stereo unspecified) | 2.59 µM [rising, full curve, poor fit] | –
Nc1c(C(=O)NC2CCCCC2)nsc1C(=O)OCC(=O)NC1CCCCC1 | 0.316 µM [falling, full curve, poor fit] | –
COc1ccc(N2CCC(CNC(=O)Nc3ccc(Cl)cc3)C2)cc1 (stereo unspecified) | 3.16 µM [rising, partial curve, poor fit] | –
CC(C)(C)OC(=O)CNC(=O)c1nc[nH]c1C(=O)N1CCN(C(=O)OC(C)(C)C)CC1 | 35.5 µM [falling, single point] | –
COc1ccc(CC(=O)OCC(=O)Nc2ccc(Cl)cc2C)cc1 | 29.1 µM [rising, single point] | –
CC(=O)c1cccc(N(CC(=O)Nc2ccc(F)cc2)S(C)(=O)=O)c1 | 4.61 µM [falling, full curve] | –
OCC1(CC2CCCCO2)CCN(Cc2nc3ccccc3[nH]2)CC1 (stereo unspecified) | 12.6 µM [falling, partial curve, poor fit] | –
O=C(N/N=C/C=C\c1ccccc1[N+](=O)[O-])c1cccs1 | 20.6 µM [falling, partial curve] | –
Cc1cc(-c2cc(C(=O)NCc3ccccc3)on2)nc(S(C)(=O)=O)n1 | 17.8 µM [falling, single point] | –
CCc1cccc2c(C(=O)COC(=O)c3ccc(O)cc3)c[nH]c12 | 6.51 µM [falling, partial curve] | –
CCCCn1c(SCC(=O)c2ccc(OC)c(OC)c2)nc2cc(S(N)(=O)=O)ccc21 | 32.6 µM [falling, single point] | –
Cc1ccc(CSc2nc3ccncc3[nH]2)cc1 | 29.1 µM [falling, single point] | –
Cc1cc(=O)[nH]c(=S)n1-c1ccccc1 | 0.92 µM [falling, full curve] | –
Cc1ccc(N2CC(C(=O)N3CCc4ccccc4C3)CC2=O)cc1 (stereo unspecified) | 29.1 µM [rising, single point] | –
Cc1ccccc1C(=O)N1CCCN(C(=O)c2ccccc2C)CC1 | 3.16 µM [falling, single point] | –
O=C(Nc1nc(-c2ccccc2)cs1)C1c2ccccc2Oc2ccccc21 | 7.31 µM [falling, partial curve] | 5.8 µM [rising, full curve, poor fit]
C/C(=N\NC(=O)c1nnn(-c2nonc2N)c1CN1CCCCCC1)c1ccc(Br)cc1 | 35.5 µM [falling, partial curve, poor fit] | –
Cc1ccc(C)c(N2CCN(C(=O)CCc3nc(-c4cccc(Cl)c4)no3)CC2)c1 | 16.4 µM [rising, single point] | –
Cc1ccc(NC(=O)CCNC(=O)c2ccc(Br)cc2)cc1S(=O)(=O)N1CCCCCC1 | 32.6 µM [falling, single point] | –
Cc1cc(NC(=O)CN2CCN(S(=O)(=O)c3ccc(Cl)cc3)CC2)no1 | 4.61 µM [falling, single point] | –
